# Experimental data as given in the supplement of paper PMC5949888.
# Most values lie at the floor of the assay. Slopes are relative: functional sequences can read slightly below zero.
# System: Saccharomyces cerevisiae PS128 hsf1 delta, HSF1(1-493) fusion
# Assay: growth estimate (transactivation domain function in HSF1 fusion, heat-shock survival) (a.u. (slope of normalised read count over time)); higher = stronger growth at 37°C, i.e. more transactivation activity
# Details: library: random library
row,Substance,growth estimate
1,TQVRWRSRLP,< -0.25
2,DFGWSDRQV,-0.245
3,TLG,< -0.25
4,KCSGAYLVRVCRYLGGGLFG,< -0.25
5,SIRVGCVRTTRDLSNSSPSF,< -0.25
6,GINISASLSLHLGCHSGDNS,< -0.25
7,NSQSCEAHGS,< -0.25
8,QVNRWPDDPARASQMGPLVG,< -0.25
9,KTGHFTASIFSTVPLHARCG,< -0.25
10,ISLAENSV,< -0.25
11,LDNAGDRNRCRLCISASGVI,< -0.25
12,NLGSTLSDLEYVCFGGYDYS,353
13,SVHLSVTDYSPSDKAGRQHS,< -0.25
14,RVAVGMHGIDIGRGDGGTCL,< -0.25
15,SNPMSLQSVTLPRSATRGYK,< -0.25
16,RTLMLSVYPMRLKLVIPLWE,< -0.25
17,SAGTS,< -0.25
18,SAELLVLFYRRRYIGGRTSW,< -0.25
19,SRC,< -0.25
20,VGGGMAPAEIPQCETAPIWR,-0.178
21,TVLKLRRQIPHCPANLHVRH,< -0.25
22,GTPQEQKVYISQRAISQSTT,< -0.25
23,GKDDGDMLTPCR,< -0.25
24,SVPTGVAVTPAAQRLDDPAF,< -0.25
25,SYLRPT,< -0.25

# 2 consecutive records out of the list so far, for reference:
row,Substance,growth estimate
16,RTLMLSVYPMRLKLVIPLWE,< -0.25
17,SAGTS,< -0.25

# The list goes on:

row,Substance,growth estimate
1,LWSGCFSYGESACAPAPWEV,< -0.25
2,MEASATSASGITCRPVLDVA,< -0.25
3,RYSLVS,< -0.25
4,GLDSYLRHRARDRTALRYGI,-0.249
5,FFIAEMSDVGGVVVTEAIRL,< -0.25
6,RGTGVKARRRSWPTSVGCFS,< -0.25
7,LVPSVEMS,< -0.25
8,PLREPAPCTGEWATGCESRL,< -0.25
9,DASVQRKEPRVAIKSSAQIL,< -0.25
10,RKFIREVFPSTGGSYRSYCD,< -0.25
11,RAASRLR,< -0.25
12,VVYLARSRGCRRPSTSVKG,< -0.25
13,FLPHGALRE,< -0.25
14,LVCTRATLRVKGVDPVPIGP,< -0.25
15,GVSHQRPVALRHGLRILRVR,-0.208
16,VKVFTEWAYASGAQISGTAR,< -0.25
17,IRIVSRMYAGHGTAACSRGR,< -0.25
18,RDGVVM,< -0.25
19,TAQQAACAKWS,< -0.25
20,LISCYRTRGGTAGHGNLGV,< -0.25
21,SGMDRPSLVDQILPLGHVAL,< -0.25
22,HRDPSKLAGLLVCGAYECVR,< -0.25
23,QRSRWCCYFARVSRGLGPSR,< -0.25
24,MDRCAGPWAYRSRDYYNSYQ,< -0.25
25,ATSSRPLERMLVLTSPFVRA,< -0.25

row,Substance,growth estimate
1,VQGLYKFKLQSGQAAGVRGQ,< -0.25
2,LLISTSTSMPPYEA,< -0.25
3,NTPSYSDGYCNRSLSRKRNP,< -0.25
4,NIKCDWDKS,< -0.25
5,EERHNVPEFG,< -0.25
6,ILGTASICPRPDGVQRR,< -0.25
7,SMFDRLL,< -0.25
8,TWKP,< -0.25
9,PLL,< -0.25
10,LVLQRR,< -0.25
11,ARYGC,< -0.25
12,VDDVLEEVTGAY,< -0.25
13,IMTAGGVKILGNG,< -0.25
14,LTGVTRRWCVCFPAEVENPR,< -0.25
15,WTGTAEIGVRLGLKIYSGGS,< -0.25
16,RRPGRLQQATSC,< -0.25
17,AAADAHCGRQQAVQ,< -0.25
18,FRVSCQSMQVIDASVESFDL,-0.23
19,QSEVRLS,< -0.25
20,ISIRPMFFSDGYTDYWVRAH,< -0.25
21,SSNV,< -0.25
22,RVEL,< -0.25
23,QLLPGPNCC,< -0.25
24,PYPAPVTACF,< -0.25
25,TLKISLKQLASRSTITDRIT,< -0.25

row,Substance,growth estimate
1,GSLLVFNIISLGRDLIFS,< -0.25
2,FRVWDIKTHVGLAPCHGVCC,< -0.25
3,QDGYFHYSRPCSIPAECYNQ,< -0.25
4,RIRGNRGFRFQPENVGIN,< -0.25
5,NSYVNGGLYVPVGN,< -0.25
6,RRCRG,< -0.25
7,KTKGILG,-0.231
8,NQA,< -0.25
9,RGRYTHRPRILVVAYTLRPN,< -0.25
10,GPRR,< -0.25
11,VRVLNYTHFSRFSNLPSLRH,< -0.25
12,LGKSDTMTLQSLADIPRTAP,< -0.25
13,CPIRGERD,< -0.25
14,LNAIRR,< -0.25
15,RRFFGRDSC,< -0.25
16,RLYRTWRTAHVCLNTSWTSK,< -0.25
17,VMRVRLGSGPPIIRLSCKLL,< -0.25
18,TDLVGTRLVQPLSTQLIQ,< -0.25
19,VLCEAVPAKEGQSCRGPTMP,< -0.25
20,DLEVSVEDCAAGVLPPFSGD,< -0.25
21,SYG,< -0.25
22,LQRAAHYSERCLLASPRL,< -0.25
23,DATDYKISNVGLV,< -0.25
24,GGQRTAQRIAW,< -0.25
25,YKGGCAEVGGLFTWVLLDVP,< -0.25

row,Substance,growth estimate
1,REARERLPSCIPDSR,< -0.25
2,RTVSKTRSQNPNGNRQSPSK,< -0.25
3,VGKIYRWAAPSTSTL,< -0.25
4,HLSYNARLAPRDYPKGAPGS,< -0.25
5,CKFCYENSGEPE,< -0.25
6,CHMEILS,< -0.25
7,NGDQYTENLPWPSGTAVSKR,< -0.25
8,THYRGGTTRSLHCCPLDMPT,< -0.25
9,INFTKRSHIRERSLSVYQVS,< -0.25
10,TRCSGLARSISGCSDVFEKT,< -0.25
11,WKTVH,< -0.25
12,GYRPWHIMSVNSKAATAPRG,< -0.25
13,YGVIIRRWELITCKFVSSRG,< -0.25
14,GNWQWHGDWVSSVQFDRNTS,< -0.25
15,ETSESATSVLLRVHTNPSGP,< -0.25
16,SMRYPVVWP,< -0.25
17,EEGLNPKGPEEPLNGEVHCA,< -0.25
18,LASSDDFLYTKIRCVCGKLW,< -0.25
19,IIS,< -0.25
20,EVYSEFRCDQAFVGCTLPGK,< -0.25
21,FEVYEITRAPASHGRTTCRV,0.342
22,ILHIITH,-0.246
23,ESMTRHWGEICVLWARVSVI,< -0.25
24,KRRAAPIISSWYGT,< -0.25
25,RFCAF,< -0.25

row,Substance,growth estimate
1,YGSLCCSAPSDSKYGSSG,< -0.25
2,FIRSRDVTDWRARVHSSPCL,< -0.25
3,SKRESNQQVGARLRRSGCRV,< -0.25
4,RQAS,< -0.25
5,RYSRNLECKDCRYLPPGLTC,< -0.25
6,DGRPGESSVICSSLKYVPLG,< -0.25
7,RNAISSCSPAPIRQHGPCWY,-0.25
8,CYVGRITHAFSLRWVARGAG,< -0.25
9,DKKLCLADRAAVTLIRSRRS,< -0.25
10,IVASPLMGGGQRED,< -0.25
11,TSCI,< -0.25
12,ACRGGQVLKEVLTDRNCVRL,< -0.25
13,RSSTANYRSRAQIGASLASC,< -0.25
14,LISHRS,< -0.25
15,SQPLHVQGS,< -0.25
16,HIENGGVPAGLSQGCLRGRT,< -0.25
17,NDGVVGAKIQIWEGNRKTGN,< -0.25
18,LSLGLRRPSAFDSPLLGASE,< -0.25
19,RGPPIHS,< -0.25
20,TRGTAHNGTVEWGLGAH,0.116
21,VCKDGLPLFQGDLRHGCLRG,< -0.25
22,YWSDSL,< -0.25
23,AVSRCHLVATVFRISSRLTT,< -0.25
24,NGRALLKASCLIYTQLVRFL,< -0.25
25,TWKHRTPPSPLTRMAMDDIS,< -0.25

row,Substance,growth estimate
1,TRRQKCSGN,< -0.25
2,VVKKVVVPCRLSRFTARSV,< -0.25
3,PERHESFR,-0.246
4,PELNRTFSRGQRARRRPAVT,< -0.25
5,VSCLGINASGKWSKDQSRTS,< -0.25
6,NPALCPAVR,< -0.25
7,IGLMR,< -0.25
8,LIPYLRNPLSTVVR,< -0.25
9,NSDSRVPGSLDCRY,< -0.25
10,DQITSFTPRMKHTNSWTSCE,< -0.25
11,FKLKARGQRESGAMIAPLIP,< -0.25
12,TPFDGGVRVRLSDSGTMATL,< -0.25
13,ATESEVHILCH,< -0.25
14,SEDAPGLGAAVRDGHVLAEG,< -0.25
15,RMYLNPRSILVFTCEAM,< -0.25
16,AWSSCGSEMFGSGGSFWNFC,-0.0954
17,HGWRSRMGL,< -0.25
18,PGFTRFYGPRGCAGKGLK,< -0.25
19,SGAKAEQTGHLQKVSKRHQV,< -0.25
20,TGDRTRSVHRLGAVMILEVP,< -0.25
21,KELVVSFASAPSKGGRRAQA,< -0.25
22,LRKRAQDGMING,< -0.25
23,GVTAAQSPRIL,< -0.25
24,LFLFEGLVHSKVGE,< -0.25
25,KRLLDYPTRR,< -0.25

# Looked up above:
# Value for NGRALLKASCLIYTQLVRFL under growth estimate: < -0.25
# Value for GINISASLSLHLGCHSGDNS under growth estimate: < -0.25
# Value for SEDAPGLGAAVRDGHVLAEG under growth estimate: < -0.25

# Additional results follow:

row,Substance,growth estimate
1,LSRQ,< -0.25
2,LGVPTRRRGLASITAHGTVG,< -0.25
3,TVHGMVRTSLIG,< -0.25
4,GVDCMHTNTLGVILLLPLRM,< -0.25
5,HGVGRIRT,< -0.25
6,LATLCQLPFGCESTESMGLN,< -0.25
7,SHNRWVRRK,< -0.25
8,PVRSSHLQVWSNPETKSGA,-0.246
9,GCTRICTQ,< -0.25
10,NGFRLGGGQLCVQHIVLGIV,< -0.25
11,RLQIKMNILSRGGNWLHWKG,< -0.25
12,SSPGAKLLRPLIA,< -0.25
13,DNPWV,< -0.25
14,RPLLPRFICSITIRCTLYSV,< -0.25
15,TWQYEFHFATPHAPPADRRP,< -0.25
16,LGPKLLRLWTLTPKFLTYVP,< -0.25
17,RGKHSAWWRRRQTP,< -0.25
18,WSQRVYKLHNPQRVRSISVR,< -0.25
19,GRAMQESRSAADL,< -0.25
20,ASQDSVAIVGFLERWFCQKH,-0.248
21,SNTTTGWMV,< -0.25
